Source: publication PMC10334844
These are yes or no findings as the source states them, for the method shown. In cells and extracts the contact can be indirect. Some entries that bind do so weakly or less than the wild type.

The chains behind the UniProt entries cited, without tags or fusion partners.
UniProt P29391: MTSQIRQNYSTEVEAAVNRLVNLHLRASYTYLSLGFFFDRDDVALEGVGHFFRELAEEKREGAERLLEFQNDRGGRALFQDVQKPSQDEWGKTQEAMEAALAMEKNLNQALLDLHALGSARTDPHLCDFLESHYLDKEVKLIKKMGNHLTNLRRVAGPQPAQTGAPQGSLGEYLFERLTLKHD

Target: T1, Ca2+-independent phospholipase A2β (mouse (endogenous in RAW264.7)) (UniProt P97819)
T1 sequence: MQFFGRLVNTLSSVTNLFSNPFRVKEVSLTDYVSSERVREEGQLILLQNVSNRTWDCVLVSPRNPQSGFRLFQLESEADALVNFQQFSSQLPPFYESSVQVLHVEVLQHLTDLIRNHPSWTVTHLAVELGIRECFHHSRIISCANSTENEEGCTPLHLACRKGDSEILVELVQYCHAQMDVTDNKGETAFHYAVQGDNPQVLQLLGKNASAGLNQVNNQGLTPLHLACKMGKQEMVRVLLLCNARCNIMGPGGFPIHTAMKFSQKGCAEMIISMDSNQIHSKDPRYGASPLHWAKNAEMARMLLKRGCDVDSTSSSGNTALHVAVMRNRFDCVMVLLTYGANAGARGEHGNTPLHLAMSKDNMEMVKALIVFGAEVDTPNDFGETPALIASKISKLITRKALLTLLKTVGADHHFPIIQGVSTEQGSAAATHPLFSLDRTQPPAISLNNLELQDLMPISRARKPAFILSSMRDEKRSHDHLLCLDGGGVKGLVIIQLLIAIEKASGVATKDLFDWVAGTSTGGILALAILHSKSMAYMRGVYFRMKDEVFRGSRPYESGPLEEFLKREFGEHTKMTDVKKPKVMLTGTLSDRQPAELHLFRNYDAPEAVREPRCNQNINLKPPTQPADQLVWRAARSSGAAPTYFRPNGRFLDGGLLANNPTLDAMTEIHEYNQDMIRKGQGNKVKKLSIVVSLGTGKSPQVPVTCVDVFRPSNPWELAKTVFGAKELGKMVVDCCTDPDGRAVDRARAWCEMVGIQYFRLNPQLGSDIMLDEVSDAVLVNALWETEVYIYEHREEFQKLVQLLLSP
Experiment: co-IP; RAW264.7 macrophage lysate in CO-IP buffer (50 mM Tris-HCl pH 7.5, 200 mM NaCl, 5 mM MgCl2, 1% NP-40, 10% glycerol, 1 mM DTT); antibodies 2 h, Protein G beads overnight at 4 °C; immunoblot

binding: binds
Substance: ferritin light chain (from UniProt P29391 1-183)
